The list is a part of this screen's results and no random one: it gathers tests that were run many times, whatever their T/C, doses with no T/C, and many T/C values between a quarter and a half above the control. Other doses and runs of a compound stand elsewhere. T/C: endpoint of the treated group in % of that of the vehicle group. Some doses have a count of surviving animals in place of a T/C: the source holds a T/C of zero for them, seemingly a mark for toxic or unscored doses. Some doses without a T/C left all or most animals alive at the check, yet need not have been tolerated: survival well below the control is almost never listed, so the zero probably covers shortened survival too. Counts of survivors are from the toxicity check (mostly the fifth day) where no day follows; animals may have died later. Schedule codes are those of the source, read here as Q, the interval in days (D) or hours (H), X, the number of doses. Some structures stand for samples that the source files as different forms (salt, stereo form or complex); doses refer to the form tested. Where survival is the endpoint, the PubChem record calls one and a half times the control and up active, and a quarter to a half above the control has no call in these data; cut-offs in other NCI protocols can differ. Some T/C values carry the count of animals alive at the toxicity check (mostly the fifth day); without a count, all were alive then.

The subject of this experiment is BDF1 mice, B16 melanoma ip, median survival T/C. The experiment in a line: NCI In Vivo Anticancer Drug Screen. Data for tumor model B16 Melanoma (intraperitoneal) in B6D2F1 (BDF1) mice. Particulars: T/C endpoint: median survival time, higher T/C = longer survival. The gist of the method: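 Transplantable tumor model; survival or tumor size measured; reported as T/C, treated over vehicle control.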

The mark [1] stands for this setting: dose: 25.0 mg/kg/injection, schedule: Q01DX009 (ip), vehicle: Klucel (hydroxypropylcellulose) (HPC).
Setting [2] is: dose: 100.0 mg/kg/injection, schedule: Q01DX009 (ip), vehicle: Klucel (hydroxypropylcellulose) (HPC).
Where [3] appears, read: dose: 200.0 mg/kg/injection, schedule: Q01DX009 (ip), vehicle: Klucel (hydroxypropylcellulose) (HPC).

On to `Cn1c2nc3ccccc3c-2nc2ccccc21`, for which the survivor count reads like this: (dose: 12.5 mg/kg/injection, schedule: Q01DX009 (ip), vehicle: water) 9 of 10; under setting [1], 10 of 10; (dose: 25.0 mg/kg/injection, schedule: Q01DX009 (ip), vehicle: water) 10 of 10; under setting [2], 10 of 10; under setting [3], 10 of 10.
Consider `COC(=O)Nc1cccc(-c2nc3ccc(NC(=O)OC)cc3c(=O)n2-c2ccccc2)c1`, for which the T/C is, setting by setting: (dose: 16.0 mg/kg/injection, schedule: Q01DX009 (ip), vehicle: saline) 148 % of control; (dose: 25.0 mg/kg/injection, schedule: Q04DX006 (ip), vehicle: saline) 126 % of control; (dose: 32.0 mg/kg/injection, schedule: Q01DX009 (ip), vehicle: Klucel (hydroxypropylcellulose) (HPC)) 127 % of control [9 of 10 alive]; (dose: 32.0 mg/kg/injection, schedule: Q01DX009 (ip), vehicle: saline) 146 % of control; (dose: 75.0 mg/kg/injection, schedule: Q04DX006 (ip), vehicle: saline) 125 % of control; (dose: 128.0 mg/kg/injection, schedule: Q01DX009 (ip), vehicle: saline) 131 % of control [9 of 10 alive]. Besides, the survivor count by setting is: (dose: 64.0 mg/kg/injection, schedule: Q01DX009 (ip), vehicle: Klucel (hydroxypropylcellulose) (HPC)) 4 of 10; (dose: 128.0 mg/kg/injection, schedule: Q01DX009 (ip), vehicle: Klucel (hydroxypropylcellulose) (HPC)) 0 of 10; (dose: 200.0 mg/kg/injection, schedule: Q04DX005 (ip), vehicle: other) 9 of 9; (dose: 256.0 mg/kg/injection, schedule: Q01DX009 (ip), vehicle: Klucel (hydroxypropylcellulose) (HPC)) 0 of 10; (dose: 256.0 mg/kg/injection, schedule: Q01DX009 (ip), vehicle: saline) 10 of 10.
Take `CCC1(C(C)Br)OC2=C(CC(C#N)(C#N)C(C#N)(C#N)C2)O1` (stereo not drawn): the survivor count is listed as 9 of 10 (dose: 150.0 mg/kg/injection, schedule: Q04DX003 (ip), vehicle: Klucel (hydroxypropylcellulose) (HPC)) and 5 of 10 (dose: 300.0 mg/kg/injection, schedule: Q04DX003 (ip), vehicle: Klucel (hydroxypropylcellulose) (HPC)).
As to `CCCCCCCCCCCC(O)CCCC` (stereo not drawn), the survivor count is, setting by setting: under setting [1], 10 of 10; (dose: 50.0 mg/kg/injection, schedule: Q01DX009 (ip), vehicle: Klucel (hydroxypropylcellulose) (HPC)) 10 of 10; under setting [2], 10 of 10; under setting [3], 10 of 10.
For `CCOc1ccc(-c2nc3ccc(-c4nc5ccc(N6CCN(C)CC6)cc5[nH]4)cc3[nH]2)cc1`, the survivor count (dose: 25.0 mg/kg/injection, schedule: Q01DX009 (ip), vehicle: saline) is on record as 10 of 10.

These data come from PubChem BioAssay AID192 (DTP/NCI, 2004).
